US20120088663A1, “Triazole Compounds Carrying a Sulfur Substituent” (BASF SE, priority 2009, published 2012)
Some results were stated once for a whole list of compounds, not compound by compound.

Tests used:
Type in all cases: in vivo
[1] = system: Puccinia recondita; experiment: Preventative control of brown rust on wheat (green house test); details: 300 ppm spray, wheat seedlings, assessed after 6 days in greenhouse, untreated plants 90% infected
[2] = system: Phakopsora pachyrhizi; experiment: Curative control of soy bean rust on soy beans (green house test); details: 300 ppm spray, soy bean seedlings, assessed 14 days after treatment, untreated plants 60% infected
[3] = system: Septoria tritici; experiment: Preventative control of leaf blotch on wheat (green house test); details: 300 ppm spray, wheat seedlings, assessed after 4 weeks, untreated plants 90% infected

SMILES | infection (fungal attack on the leaves, % diseased leaf area) [1] | infection (fungal attack on the leaves, % diseased leaf area) [2] | infection (fungal attack on the leaves, % diseased leaf area) [3]
CC1CC(C)OC(Cn2cncn2)(c2ccc(Oc3ccc(Cl)cc3)cc2Cl)O1 (stereo not shown) [Example 51, 1-{2-[2-chloro-4-(4-chloro-phenoxy)-phenyl]-4,6-dimethyl-[1,3]dioxan-2-ylmethyl}-1H-[1,2,4]triazole] | at most 15% | at most 15% | –
CC1COC(Cn2cncn2)(c2ccc(Oc3cc(F)ccc3F)cc2Cl)O1 (stereo not shown) [Example 26, 1-{2-[2-Chloro-4-(2,5-difluoro-phenoxy)-phenyl]-4-methyl-[1,3]dioxolan-2-ylmethyl}-1H-[1,2,4]triazole] | at most 15% | – | –
CC1COC(Cn2cncn2)(c2cc(F)c(Oc3ccc(Cl)cc3)cc2Cl)O1 (stereo not shown) [Example 43, 1-{2-[2-Chloro-4-(4-chloro-phenoxy)-5-fluoro-phenyl]-4-methyl-[1,3]dioxolan-2-ylmethyl}-1H-[1,2,4]triazole] | at most 15% | at most 15% | –
Clc1ccc(Oc2ccc(C3(Cn4cncn4)Oc4ccccc4O3)c(Cl)c2)cc1 [Example 50, 1-{2-[2-Chloro-4-(4-chloro-phenoxy)-phenyl]-benzo[1,3]dioxolan-2-ylmethyl}-1H-[1,2,4]triazole] | at most 15% | at most 15% | –
CC1COC(Cn2cncn2)(c2ccc(Oc3ccc(F)cc3F)cc2Cl)O1 (stereo not shown) [Example 19, 1-{2-[2-Chloro-4-(2,4-difluoro-phenoxy)-phenyl]-4-methyl-[1,3]dioxolan-2-ylmethyl}-1H-[1,2,4]triazole] | – | at most 15% | at most 15%
CC1COC(Cn2ncnc2S)(c2cc(F)c(Oc3ccc(Cl)cc3)cc2F)O1 (stereo not shown) [Example 63, 2-{2-[4-(4-Chloro-phenoxy)-2,5-difluoro-phenyl]-4-methyl-[1,3]dioxolan-2-ylmethyl}-2H-[1,2,4]triazole-3-thiol] | – | at most 15% | at most 15%
CC1COC(Cn2ncnc2S)(c2ccc(Oc3ccccc3)c(F)c2)O1 (stereo not shown) [Example 67, 2-{2-[3-Fluoro-4-phenoxy-phenyl]-4-methyl-[1,3]dioxolan-2-yl-methyl}-2H-[1,2,4]triazole-3-thiol] | – | at most 15% | at most 15%
CCCC1COC(Cn2cncn2)(c2ccc(Oc3c(F)cccc3Cl)cc2)O1 (stereo not shown) [Example 8, 1-{2-[4-(6-Chloro-2-fluoro-phenoxy)-phenyl]-4-propyl-[1,3]dioxolan-2-ylmethyl}-1H-[1,2,4]triazole] | – | at most 15% | at most 15%
CC1COC(Cn2cncn2)(c2cc(F)c(Oc3ccccc3)cc2F)O1 (stereo not shown) [Example 40, 1-{2-[3,6-Difluoro-4-phenoxy-phenyl]-4-methyl-[1,3]dioxolan-2-ylmethyl}-1H-[1,2,4]triazole] | – | at most 15% | at most 15%
CC1COC(Cn2cncn2)(c2cc(F)c(Oc3ccccc3)c(F)c2)O1 (stereo not shown) [Example 41, 1-{2-[3,5-Difluoro-4-phenoxy-phenyl]-4-methyl-[1,3]dioxolan-2-ylmethyl}-1H-[1,2,4]triazole] | at most 15% | at most 15% | –
CC1CCOC(Cn2cncn2)(c2ccc(Oc3ccc(Cl)cc3)cc2Cl)O1 (stereo not shown) [Example 1, 1-{2-[2-Chloro-4-(4-chloro-phenoxy)-phenyl]-4-methyl-[1,3]dioxan-2-ylmethyl}-1H-[1,2,4]triazole] | at most 15% | at most 15% | –
CC1COC(Cn2cncn2)(c2ccc(Oc3cc(Cl)ccc3F)cc2)O1 (stereo not shown) [Example 11, 1-{2-[4-(5-Chloro-2-fluoro-phenoxy)-phenyl]-4-methyl-[1,3]dioxolan-2-ylmethyl}-1H-[1,2,4]triazole] | – | at most 15% | at most 15%
CC1CCOC(Cn2ncnc2S)(c2ccc(Oc3ccc(Cl)cc3)cc2Cl)O1 (stereo not shown) [Example 62, 2-{2-[2-Chloro-4-(4-chloro-phenoxy)-phenyl]-4-methyl-[1,3]dioxan-2-yl-methyl}-2H-[1,2,4]triazole-3-thiol] | – | at most 15% | at most 15%
Clc1ccc(Oc2ccc(C3(Cn4cncn4)OC4CCCCC4O3)c(Cl)c2)cc1 (stereo not shown) [Example 49, 1-{2-[2-Chloro-4-(4-chloro-phenoxy)-phenyl]-hexahydrobenzo[1,3]dioxolan-2-ylmethyl}-1H-[1,2,4]triazole] | at most 15% | at most 15% | –
CCC1COC(Cn2cncn2)(c2ccc(Oc3ccc(Cl)cc3F)cc2)O1 (stereo not shown) [Example 14, 1-{2-[4-(4-Chloro-2-fluoro-phenoxy)-phenyl]-4-ethyl-[1,3]dioxolan-2-ylmethyl}-1H-[1,2,4]triazole] | – | at most 15% | at most 15%
CCCC1COC(Cn2cncn2)(c2ccc(Oc3ccc(Cl)cc3)cc2Cl)O1 (stereo not shown) [Example 39, 1-{2-[2-Chloro-4-(4-chloro-phenoxy)-phenyl]-4-propyl-[1,3]dioxolan-2-ylmethyl}-1H-[1,2,4]triazole] | – | at most 15% | at most 15%
CC1COC(Cn2cncn2)(c2ccc(Oc3ccc(Cl)cc3F)cc2Cl)O1 (stereo not shown) [Example 22, 1-{2-[2-Chloro-4-(4-chloro-2-fluoro-phenoxy)-phenyl]-4-methyl-[1,3]dioxolan-2-ylmethyl}-1H-[1,2,4]triazole] | – | at most 15% | at most 15%
Cc1cc(Oc2ccc(F)cc2F)ccc1C1(Cn2cncn2)OCC(C)O1 (stereo not shown) [Example 21, 1-{2-[4-(2,4-Difluoro-phenoxy)-2-methyl-phenyl]-4-methyl-[1,3]dioxolan-2-ylmethyl}-1H-[1,2,4]triazole] | – | at most 15% | at most 15%
CC1COC(Cn2ncnc2S)(c2cc(F)c(Oc3ccccc3)cc2F)O1 (stereo not shown) [Example 64, 2-{2-[2,5-Difluoro-4-phenoxy-phenyl]-4-methyl-[1,3]dioxolan-2-yl-methyl}-2H-[1,2,4]triazole-3-thiol] | – | at most 15% | at most 15%
CCC1COC(Cn2cncn2)(c2ccc(Oc3ccc(F)cc3F)cc2)O1 (stereo not shown) [Example 5, 1-{2-[4-(2,4-Difluoro-phenoxy)-phenyl]-4-ethyl-[1,3]dioxolan-2-ylmethyl}-1H-[1,2,4]triazole] | – | at most 15% | at most 15%
CCC1COC(Cn2cncn2)(c2ccc(Oc3c(F)cccc3Cl)cc2)O1 (stereo not shown) [Example 7, 1-{2-[4-(6-Chloro-2-fluoro-phenoxy)-phenyl]-4-ethyl-[1,3]dioxolan-2-ylmethyl}-1H-[1,2,4]triazole] | – | at most 15% | at most 15%
Cc1cc(Oc2ccc(Cl)cc2Cl)ccc1C1(Cn2cncn2)OCC(C)O1 (stereo not shown) [Example 28, 1-{2-[4-(2,4-Dichloro-phenoxy)-2-methyl-phenyl]-4-methyl-[1,3]dioxolan-2-ylmethyl}-1H-[1,2,4]triazole] | at most 15% | – | –
CC1COC(Cn2cncn2)(c2ccc(Oc3ccc(Cl)cc3F)cc2C(F)(F)F)O1 (stereo not shown) [Example 24, 1-{2-[4-(4-chloro-2-fluoro-phenoxy)-2-trifluoromethyl-phenyl]-4-methyl-[1,3]dioxolan-2-ylmethyl}-1H-[1,2,4]triazole] | – | at most 15% | at most 15%
Cc1cc(Oc2cc(F)ccc2F)ccc1C1(Cn2cncn2)OCC(C)O1 (stereo not shown) [Example 27, 1-{2-[4-(2,5-Difluoro-phenoxy)-2-methyl-phenyl]-4-methyl-[1,3]dioxolan-2-ylmethyl}-1H-[1,2,4]triazole] | at most 15% | – | –
CC1COC(Cn2cncn2)(c2ccc(Oc3cc(F)ccc3F)cc2)O1 (stereo not shown) [Example 16, 1-{2-[4-(2,5-Difluoro-phenoxy)-phenyl]-4-methyl-[1,3]dioxolan-2-ylmethyl}-1H-[1,2,4]triazole] | – | at most 15% | at most 15%
CC1COC(Cn2cncn2)(c2ccc(Oc3c(F)cccc3Cl)cc2Cl)O1 (stereo not shown) [Example 25, 1-{2-[2-Chloro-4-(6-chloro-2-fluoro-phenoxy)-phenyl]-4-methyl-[1,3]dioxolan-2-ylmethyl}-1H-[1,2,4]triazole] | at most 15% | – | –
CCC1COC(Cn2cncn2)(c2ccc(Oc3ccc(Cl)cc3)cc2Cl)O1 (stereo not shown) [Example 38, 1-{2-[2-Chloro-4-(4-chloro-phenoxy)-phenyl]-4-ethyl-[1,3]dioxolan-2-ylmethyl}-1H-[1,2,4]triazole] | – | at most 15% | at most 15%
CC1COC(Cn2cncn2)(c2ccc(Oc3c(F)cccc3Cl)cc2)O1 (stereo not shown) [Example 6, 1-{2-[4-(6-Chloro-2-fluoro-phenoxy)-phenyl]-4-methyl-[1,3]dioxolan-2-ylmethyl}-1H-[1,2,4]triazole] | – | at most 15% | at most 15%
